Source: article PMC6646356, “The AAA + ATPase TorsinA polymerizes into hollow helical tubes with 8.5 subunits per turn” (Nature Communications, 2019)
No constants are given. Whether binding was seen depends on the method and setting. One block for each substance: values may come before it.

Amino acid sequences for entries named in this document (tags omitted). A change or cut given only in a name is not applied to a line headed by its entry. Chains listed by the source or under a name are the forms on record and can include a tag or linker. Residues count along the entry.
MBP-TorsinA E171Q (residues 51–332) (O14656, form named): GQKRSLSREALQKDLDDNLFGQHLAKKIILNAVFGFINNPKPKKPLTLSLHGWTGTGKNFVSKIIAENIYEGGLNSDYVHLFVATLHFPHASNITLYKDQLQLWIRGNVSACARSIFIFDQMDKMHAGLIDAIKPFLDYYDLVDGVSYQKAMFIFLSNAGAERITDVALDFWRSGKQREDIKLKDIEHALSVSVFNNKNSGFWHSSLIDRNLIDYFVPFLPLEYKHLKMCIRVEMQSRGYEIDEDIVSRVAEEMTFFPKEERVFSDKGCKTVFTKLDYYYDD
TorsinA D188A (O14656, form named): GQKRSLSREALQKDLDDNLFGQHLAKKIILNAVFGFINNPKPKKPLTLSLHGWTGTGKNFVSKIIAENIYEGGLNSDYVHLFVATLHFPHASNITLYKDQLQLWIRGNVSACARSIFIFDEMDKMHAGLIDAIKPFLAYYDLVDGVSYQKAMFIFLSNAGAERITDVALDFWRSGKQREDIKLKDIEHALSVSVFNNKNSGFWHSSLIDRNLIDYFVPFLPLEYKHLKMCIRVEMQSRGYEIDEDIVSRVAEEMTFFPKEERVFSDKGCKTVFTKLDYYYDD
TorsinA D188Y (O14656, form named): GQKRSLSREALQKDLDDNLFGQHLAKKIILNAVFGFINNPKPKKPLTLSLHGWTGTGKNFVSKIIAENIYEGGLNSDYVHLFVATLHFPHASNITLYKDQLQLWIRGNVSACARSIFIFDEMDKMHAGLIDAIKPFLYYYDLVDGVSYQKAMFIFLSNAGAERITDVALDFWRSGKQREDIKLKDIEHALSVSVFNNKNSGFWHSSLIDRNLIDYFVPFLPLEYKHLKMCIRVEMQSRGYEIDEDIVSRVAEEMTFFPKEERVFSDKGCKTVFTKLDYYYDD
TorsinA D264A (O14656, form named): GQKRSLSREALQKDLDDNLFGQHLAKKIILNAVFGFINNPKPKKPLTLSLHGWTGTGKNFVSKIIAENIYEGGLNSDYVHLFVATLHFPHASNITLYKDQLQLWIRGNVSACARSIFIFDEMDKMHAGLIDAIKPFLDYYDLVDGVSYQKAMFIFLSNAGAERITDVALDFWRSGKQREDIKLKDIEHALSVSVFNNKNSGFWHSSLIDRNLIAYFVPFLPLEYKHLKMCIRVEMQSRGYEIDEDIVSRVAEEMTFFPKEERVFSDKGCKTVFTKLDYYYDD
TorsinA G251Y (O14656, form named): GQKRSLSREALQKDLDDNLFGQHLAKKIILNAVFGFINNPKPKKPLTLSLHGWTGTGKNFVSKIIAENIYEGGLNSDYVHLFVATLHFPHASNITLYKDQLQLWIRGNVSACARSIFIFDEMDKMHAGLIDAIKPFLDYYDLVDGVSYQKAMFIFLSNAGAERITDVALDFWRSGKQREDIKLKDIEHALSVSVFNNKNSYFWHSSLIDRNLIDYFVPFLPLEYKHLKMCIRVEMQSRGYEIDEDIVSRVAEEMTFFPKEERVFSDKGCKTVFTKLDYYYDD
TorsinA K148E (O14656, form named): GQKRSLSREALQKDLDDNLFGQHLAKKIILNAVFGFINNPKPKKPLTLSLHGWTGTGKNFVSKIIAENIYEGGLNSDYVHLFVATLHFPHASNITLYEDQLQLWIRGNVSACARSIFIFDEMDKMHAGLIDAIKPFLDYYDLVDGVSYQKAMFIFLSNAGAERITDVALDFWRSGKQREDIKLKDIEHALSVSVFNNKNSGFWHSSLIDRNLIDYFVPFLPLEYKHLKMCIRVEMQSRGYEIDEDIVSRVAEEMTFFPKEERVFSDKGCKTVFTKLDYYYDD
TorsinA K184E (O14656, form named): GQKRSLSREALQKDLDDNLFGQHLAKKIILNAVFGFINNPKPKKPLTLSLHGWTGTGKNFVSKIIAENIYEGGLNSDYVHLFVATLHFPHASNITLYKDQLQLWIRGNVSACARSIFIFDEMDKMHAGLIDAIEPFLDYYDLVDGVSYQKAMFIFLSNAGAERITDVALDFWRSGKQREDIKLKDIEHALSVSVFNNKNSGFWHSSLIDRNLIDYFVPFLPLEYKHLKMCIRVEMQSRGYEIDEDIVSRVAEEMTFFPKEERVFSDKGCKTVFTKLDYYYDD
TorsinAΔE (deletion of glutamate 303) (O14656, form named): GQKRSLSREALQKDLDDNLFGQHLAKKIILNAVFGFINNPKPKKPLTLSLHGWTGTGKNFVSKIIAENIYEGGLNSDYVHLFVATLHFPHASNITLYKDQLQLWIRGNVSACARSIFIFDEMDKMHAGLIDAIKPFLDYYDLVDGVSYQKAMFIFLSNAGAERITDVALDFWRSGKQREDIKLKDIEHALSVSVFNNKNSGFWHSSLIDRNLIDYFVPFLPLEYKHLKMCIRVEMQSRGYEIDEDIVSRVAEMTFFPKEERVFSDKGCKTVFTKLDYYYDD

Legend:
Experiment in all cases: negative-stain electron microscopy; purified TorsinA variants without liposomes, diluted in ATP-containing buffer (HEPES/NaOH pH 8.0, NaCl, 10 mM MgCl2, ATP), 2% uranyl acetate stain; filament formation (self-polymerisation); MBP tag uncleaved or cleaved with 3C protease; both purified
[1] = molecular target: MBP-TorsinA E171Q (residues 51–332) (human) (UniProt O14656)
TorsinA D188A (human) = TorsinA D188A (human) (UniProt O14656)
TorsinA D188Y (human) = TorsinA D188Y (human) (UniProt O14656)
TorsinA D264A (human) = TorsinA D264A (human) (UniProt O14656)
TorsinA G251Y (human) = TorsinA G251Y (human) (UniProt O14656)
TorsinA K148E (human) = TorsinA K148E (human) (UniProt O14656)
TorsinA K184E (human) = TorsinA K184E (human) (UniProt O14656)
[2] = molecular target: TorsinAΔE (deletion of glutamate 303) (human) (UniProt O14656)

Substance: TorsinA D188A (from UniProt O14656 51-332) (domain or fragment)
- binding (TorsinA D188A (human)): no binding

Substance: TorsinA K184E (from UniProt O14656 51-332) (domain or fragment)
- binding (TorsinA K184E (human)): no binding

Substance: TorsinAΔE (deletion of glutamate 303) (from UniProt O14656 51-332) (domain or fragment)
- binding [2]: no binding

Next, values leading:

- binding [1]: no binding
Substance: MBP-TorsinA E171Q (residues 51–332) (from UniProt O14656 51-332) (domain or fragment)

- binding (TorsinA D188Y (human)): no binding
Substance: TorsinA D188Y (from UniProt O14656 51-332) (domain or fragment)

- binding (TorsinA D264A (human)): no binding
Substance: TorsinA D264A (from UniProt O14656 51-332) (domain or fragment)

- binding (TorsinA G251Y (human)): no binding
Substance: TorsinA G251Y (from UniProt O14656 51-332) (domain or fragment)

- binding (TorsinA K148E (human)): no binding
Substance: TorsinA K148E (from UniProt O14656 51-332) (domain or fragment)
